Where two headings read alike, the source gives them in different places. Results are given in words; binding and its absence hold for the method and conditions named. Binding seen in cells or lysates may run through a third protein. A yes stands for co-enrichment or nearness to the bait. Other partners may have been found.

Protein sequences, listed by entry. Tags and fused reporters are not part of them.
UniProt O15117: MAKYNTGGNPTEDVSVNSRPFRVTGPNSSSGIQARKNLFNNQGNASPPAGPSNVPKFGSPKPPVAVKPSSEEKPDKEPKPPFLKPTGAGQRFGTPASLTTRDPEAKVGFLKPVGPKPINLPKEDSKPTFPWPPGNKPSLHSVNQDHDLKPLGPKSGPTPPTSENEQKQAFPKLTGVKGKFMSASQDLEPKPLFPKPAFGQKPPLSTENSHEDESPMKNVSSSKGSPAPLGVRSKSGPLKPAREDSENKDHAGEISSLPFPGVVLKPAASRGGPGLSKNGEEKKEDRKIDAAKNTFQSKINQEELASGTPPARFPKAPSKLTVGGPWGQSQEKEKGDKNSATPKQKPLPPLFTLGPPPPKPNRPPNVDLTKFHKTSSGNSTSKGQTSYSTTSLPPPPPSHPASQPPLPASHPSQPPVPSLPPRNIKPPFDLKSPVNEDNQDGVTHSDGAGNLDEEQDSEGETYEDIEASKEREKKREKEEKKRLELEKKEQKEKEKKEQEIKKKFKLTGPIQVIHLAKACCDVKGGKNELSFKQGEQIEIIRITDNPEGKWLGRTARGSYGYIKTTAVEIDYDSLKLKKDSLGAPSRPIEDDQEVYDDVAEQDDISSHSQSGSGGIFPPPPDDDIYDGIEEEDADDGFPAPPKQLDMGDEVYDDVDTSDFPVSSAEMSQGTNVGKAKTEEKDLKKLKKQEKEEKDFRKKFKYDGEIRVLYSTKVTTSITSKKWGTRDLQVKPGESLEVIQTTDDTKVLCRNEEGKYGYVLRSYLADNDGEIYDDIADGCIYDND
UniProt P42768: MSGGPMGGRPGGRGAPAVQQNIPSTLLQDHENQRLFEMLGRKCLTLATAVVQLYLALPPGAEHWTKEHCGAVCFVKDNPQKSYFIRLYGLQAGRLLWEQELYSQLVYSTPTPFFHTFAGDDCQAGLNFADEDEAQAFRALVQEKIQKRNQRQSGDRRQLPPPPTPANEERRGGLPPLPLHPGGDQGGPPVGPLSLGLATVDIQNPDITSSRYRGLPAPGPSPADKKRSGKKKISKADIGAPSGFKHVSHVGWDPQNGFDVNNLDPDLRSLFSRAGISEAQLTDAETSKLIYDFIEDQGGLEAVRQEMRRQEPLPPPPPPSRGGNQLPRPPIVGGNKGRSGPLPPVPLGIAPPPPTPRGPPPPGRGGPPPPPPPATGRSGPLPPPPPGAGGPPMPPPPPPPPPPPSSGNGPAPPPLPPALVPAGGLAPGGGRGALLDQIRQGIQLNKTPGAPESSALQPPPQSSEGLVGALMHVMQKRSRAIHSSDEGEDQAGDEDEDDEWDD

Assay [1] concerns the target T1, BirA*–MYO1F tail (human) (UniProt O00160).
T1 sequence: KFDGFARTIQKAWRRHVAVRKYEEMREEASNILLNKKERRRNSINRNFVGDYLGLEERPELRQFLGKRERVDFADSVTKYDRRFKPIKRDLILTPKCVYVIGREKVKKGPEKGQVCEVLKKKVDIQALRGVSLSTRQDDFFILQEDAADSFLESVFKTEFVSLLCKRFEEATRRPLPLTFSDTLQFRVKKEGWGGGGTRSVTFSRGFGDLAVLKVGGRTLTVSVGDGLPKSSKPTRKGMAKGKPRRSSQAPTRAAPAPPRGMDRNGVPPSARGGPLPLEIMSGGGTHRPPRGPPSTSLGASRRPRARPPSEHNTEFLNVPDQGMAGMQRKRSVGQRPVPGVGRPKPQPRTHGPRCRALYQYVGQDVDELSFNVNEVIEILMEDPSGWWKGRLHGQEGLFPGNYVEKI
Nature of the assay: proximity labelling; BioID in U937 cells stably expressing BirA*–MYO1F tail, PHmut or ΔSH3; 50 µM biotin for 24 h; RIPA lysis; streptavidin beads; mass spectrometry, LFQ against BirA*-only control, threshold 4-fold or greater enrichment.

For assay [2], the target named is T1, BirA*–MYO1F tail (human). Described as above. This is another data set of the same source.

In the case of “FYN-binding protein (FYB) (from UniProt O15117 1-783)”, the binding entry with BirA*–MYO1F tail (human) [1] was “binds”.
Take “Wiskott–Aldrich syndrome protein (WAS) (from UniProt P42768 1-502)”: the binding entry in the assay with BirA*–MYO1F tail (human) [1] is reported as “binds”.

B1: NUMB (protein, UniProt P49757 1-651)
chain: MNKLRQSFRRKKDVYVPEASRPHQWQTDEEGVRTGKCSFPVKYLGHVEVDESRGMHICEDAVKRLKAERKFFKGFFGKTGKKAVKAVLWVSADGLRVVDEKTKDLIVDQTIEKVSFCAPDRNFDRAFSYICRDGTTRRWICHCFMAVKDTGERLSHAVGCAFAACLERKQKREKECGVTATFDASRTTFTREGSFRVTTATEQAEREEIMKQMQDAKKAETDKIVVGSSVAPGNTAPSPSSPTSPTSDATTSLEMNNPHAIPRRHAPIEQLARQGSFRGFPALSQKMSPFKRQLSLRINELPSTMQRKTDFPIKNAVPEVEGEAESISSLCSQITNAFSTPEDPFSSAPMTKPVTVVAPQSPTFQANGTDSAFHVLAKPAHTALAPVAMPVRETNPWAHAPDAANKEIAATCSGTEWGQSSGAASPGLFQAGHRRTPSEADRWLEEVSKSVRAQQPQASAAPLQPVLQPPPPTAISQPASPFQGNAFLTSQPVPVGVVPALQPAFVPAQSYPVANGMPYPAPNVPVVGITPSQMVANVFGTAGHPQAAHPHQSPSLVRQQTFPHYEASSATTSPFFKPPAQHLNGSAAFNGVDDGRLASADRHTEVPTGTCPVDPFEAQWAALENKSKQRTNPSPTNPFSSDLQKTFEIEL
Take B1: the binding entry with BirA*–MYO1F tail (human) [2] is “binds”.

B2: ADD3 (adducin gamma) (protein, UniProt Q9UEY8 1-706)
chain: MSSDASQGVITTPPPPSMPHKERYFDRINENDPEYIRERNMSPDLRQDFNMMEQRKRVTQILQSPAFREDLECLIQEQMKKGHNPTGLLALQQIADYIMANSFSGFSSPPLSLGMVTPINDLPGADTSSYVKGEKLTRCKLASLYRLVDLFGWAHLANTYISVRISKEQDHIIIIPRGLSFSEATASNLVKVNIIGEVVDQGSTNLKIDHTGFSPHAAIYSTRPDVKCVIHIHTLATAAVSSMKCGILPISQESLLLGDVAYYDYQGSLEEQEERIQLQKVLGPSCKVLVLRNHGVVALGETLEEAFHYIFNVQLACEIQVQALAGAGGVDNLHVLDFQKYKAFTYTVAASGGGGVNMGSHQKWKVGEIEFEGLMRTLDNLGYRTGYAYRHPLIREKPRHKSDVEIPATVTAFSFEDDTVPLSPLKYMAQRQQREKTRWLNSPNTYMKVNVPEESRNGETSPRTKITWMKAEDSSKVSGGTPIKIEDPNQFVPLNTNPNEVLEKRNKIREQNRYDLKTAGPQSQLLAGIVVDKPPSTMQFEDDDHGPPAPPNPFSHLTEGELEEYKRTIERKQQGLEDAEQELLSDDASSVSQIQSQTQSPQNVPEKLEENHELFSKSFISMEVPVMVVNGKDDMHDVEDELAKRVSRLSTSTTIENIEITIKSPEKIEEVLSPEGSPSKSPSKKKKKFRTPSFLKKNKKKEKVEA
With B2, the binding entry with BirA*–MYO1F tail (human) [2] is given as “binds”.

B3: GPR124 (protein, UniProt Q96PE1 34-1338)
chain: APGCPLSIRSCKCSGERPKGLSGGVPGPARRRVVCSGGDLPEPPEPGLLPNGTVTLLLSNNKITGLRNGSFLGLSLLEKLDLRNNIISTVQPGAFLGLGELKRLDLSNNRIGCLTSETFQGLPRLLRLNISGNIFSSLQPGVFDELPALKVVDLGTEFLTCDCHLRWLLPWAQNRSLQLSEHTLCAYPSALHAQALGSLQEAQLCCEGALELHTHHLIPSLRQVVFQGDRLPFQCSASYLGNDTRIRWYHNRAPVEGDEQAGILLAESLIHDCTFITSELTLSHIGVWASGEWECTVSMAQGNASKKVEIVVLETSASYCPAERVANNRGDFRWPRTLAGITAYQSCLQYPFTSVPLGGGAPGTRASRRCDRAGRWEPGDYSHCLYTNDITRVLYTFVLMPINASNALTLAHQLRVYTAEAASFSDMMDVVYVAQMIQKFLGYVDQIKELVEVMVDMASNLMLVDEHLLWLAQREDKACSRIVGALERIGGAALSPHAQHISVNARNVALEAYLIKPHSYVGLTCTAFQRREGGVPGTRPGSPGQNPPPEPEPPADQQLRFRCTTGRPNVSLSSFHIKNSVALASIQLPPSLFSSLPAALAPPVPPDCTLQLLVFRNGRLFHSHSNTSRPGAAGPGKRRGVATPVIFAGTSGCGVGNLTEPVAVSLRHWAEGAEPVAAWWSQEGPGEAGGWTSEGCQLRSSQPNVSALHCQHLGNVAVLMELSAFPREVGGAGAGLHPVVYPCTALLLLCLFATIITYILNHSSIRVSRKGWHMLLNLCFHIAMTSAVFAGGITLTNYQMVCQAVGITLHYSSLSTLLWMGVKARVLHKELTWRAPPPQEGDPALPTPSPMLRFYLIAGGIPLIICGITAAVNIHNYRDHSPYCWLVWRPSLGAFYIPVALILLITWIYFLCAGLRLRGPLAQNPKAGNSRASLEAGEELRGSTRLRGSGPLLSDSGSLLATGSARVGTPGPPEDGDSLYSPGVQLGALVTTHFLYLAMWACGALAVSQRWLPRVVCSCLYGVAASALGLFVFTHHCARRRDVRASWRACCPPASPAAPHAPPRALPAAAEDGSPVFGEGPPSLKSSPSGSSGHPLALGPCKLTNLQLAQSQVCEAGAAAGGEGEPEPAGTRGNLAHRHPNNVHHGRRAHKSRAKGHRAGEACGKNRLKALRGGAAGALELLSSESGSLHNSPTDSYLGSSRNSPGAGLQLEGEPMLTPSEGSDTSAAPLSEAGRAGQRRSASRDSLKGGGALEKESHRRSYPLNAASLNGAPKGGKYDDVTLMGAEVASGGCMKTGLWKSETTV
Consider B3, for which the binding result in the assay with BirA*–MYO1F tail (human) [2] is “binds”.

B4: formin-binding protein 1 (FNBP1) (protein, UniProt Q96RU3 1-617)
chain: MSWGTELWDQFDNLEKHTQWGIDILEKYIKFVKERTEIELSYAKQLRNLSKKYQPKKNSKEEEEYKYTSCKAFISNLNEMNDYAGQHEVISENMASQIIVDLARYVQELKQERKSNFHDGRKAQQHIETCWKQLESSKRRFERDCKEADRAQQYFEKMDADINVTKADVEKARQQAQIRHQMAEDSKADYSSILQKFNHEQHEYYHTHIPNIFQKIQEMEERRIVRMGESMKTYAEVDRQVIPIIGKCLDGIVKAAESIDQKNDSQLVIEAYKSGFEPPGDIEFEDYTQPMKRTVSDNSLSNSRGEGKPDLKFGGKSKGKLWPFIKKNKLMSLLTSPHQPPPPPPASASPSAVPNGPQSPKQQKEPLSHRFNEFMTSKPKIHCFRSLKRGLSLKLGATPEDFSNLPPEQRRKKLQQKVDELNKEIQKEMDQRDAITKMKDVYLKNPQMGDPASLDHKLAEVSQNIEKLRVETQKFEAWLAEVEGRLPARSEQARRQSGLYDSQNPPTVNNCAQDRESPDGSYTEEQSQESEMKVLATDFDDEFDDEEPLPAIGTCKALYTFEGQNEGTISVVEGETLYVIEEDKGDGWTRIRRNEDEEGYVPTSYVEVCLDKNAKDS
For the molecule B4, the binding entry in the assay with BirA*–MYO1F tail (human) [2] is reported as “binds”.

B5: GOLGA8R (protein, UniProt I6L899 1-631)
chain: MAEETQHNKLAAAKKKLKEYWQKNRPRVPAGVNRNRKTNGSIPETATSGGCQPPGDSATGFHREGPTSSATLKDLESPCQERAVVLDSTSVKISRLKNTIKSLKQQKKQVEHQLEEEKKANNERQKAERVLEVQIQTLIIQKEELNTDLYHMERSLRYFEEESKDLAVRLQHSLQCKGELERALSAVIATEKKKANQLSSCSKAHTEWELEQSLQDQALLKAQLTQLKESFQQLQLERDECAEHIEGERARWHQRMSKMSQEICTLKKEKQDMRWVEQLEWSLSKLKNQTAEPLPPEPPAVPSEVELQHLRKELERVAGELQSQVKNNQHISLLNRRQEERIREQEERLRKQEERLQEQHEKLRQLAKPQSVFEELNNENKSTLQLEQQVKELQEKLGEEHLEVASQQNQQLTAQLSLMALPGEGHGGEHLDSEGEEAPQPMPSVPEDPESREAMSSFMDHLKEKADLSELLKKQELRFIQYWQERCHQKIHHLLSEPGGRAKDAALGGGHHQAGAQGGDEGEAAGAAADGIAAYSNYNNGHRKFLAAAHNSADEPGPGAPAPQELGAADKHGDLREVTLTSSAQGEAREDPLLDKPTAQPIVQDHQEHPGLGSNCCVPLFCWAWLPRRRR
With B5, the binding entry with BirA*–MYO1F tail (human) [2] is given as “binds”.

The values are drawn from paper PMC12772958.
